In the supplement of paper PMC6411743:
± gives the standard deviation of the averaged measurements. The entries are a selection whose mix differs from that of the whole data set. Small differences around the control level are noise.

Chains of the proteins cited; added tags and fusions are not shown. Lines headed by an entry give the natural chain unless they say otherwise; changes in a name come on top.
UniProt P13196: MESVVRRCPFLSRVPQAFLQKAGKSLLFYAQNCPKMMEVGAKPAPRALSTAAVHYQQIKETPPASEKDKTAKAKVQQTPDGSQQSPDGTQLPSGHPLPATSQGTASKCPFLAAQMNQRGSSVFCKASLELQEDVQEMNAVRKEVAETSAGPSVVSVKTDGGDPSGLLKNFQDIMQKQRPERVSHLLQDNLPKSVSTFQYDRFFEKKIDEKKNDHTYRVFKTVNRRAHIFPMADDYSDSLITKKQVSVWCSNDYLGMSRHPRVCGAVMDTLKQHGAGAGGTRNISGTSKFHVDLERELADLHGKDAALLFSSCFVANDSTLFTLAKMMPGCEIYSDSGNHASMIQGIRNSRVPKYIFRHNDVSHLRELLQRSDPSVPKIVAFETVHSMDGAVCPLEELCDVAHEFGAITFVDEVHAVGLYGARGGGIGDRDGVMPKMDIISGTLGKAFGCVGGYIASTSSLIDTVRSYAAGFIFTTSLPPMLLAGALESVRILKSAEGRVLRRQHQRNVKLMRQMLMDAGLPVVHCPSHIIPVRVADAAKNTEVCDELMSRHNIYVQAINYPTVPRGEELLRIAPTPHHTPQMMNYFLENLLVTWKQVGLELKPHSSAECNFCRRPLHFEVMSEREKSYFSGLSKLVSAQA
UniProt P11169: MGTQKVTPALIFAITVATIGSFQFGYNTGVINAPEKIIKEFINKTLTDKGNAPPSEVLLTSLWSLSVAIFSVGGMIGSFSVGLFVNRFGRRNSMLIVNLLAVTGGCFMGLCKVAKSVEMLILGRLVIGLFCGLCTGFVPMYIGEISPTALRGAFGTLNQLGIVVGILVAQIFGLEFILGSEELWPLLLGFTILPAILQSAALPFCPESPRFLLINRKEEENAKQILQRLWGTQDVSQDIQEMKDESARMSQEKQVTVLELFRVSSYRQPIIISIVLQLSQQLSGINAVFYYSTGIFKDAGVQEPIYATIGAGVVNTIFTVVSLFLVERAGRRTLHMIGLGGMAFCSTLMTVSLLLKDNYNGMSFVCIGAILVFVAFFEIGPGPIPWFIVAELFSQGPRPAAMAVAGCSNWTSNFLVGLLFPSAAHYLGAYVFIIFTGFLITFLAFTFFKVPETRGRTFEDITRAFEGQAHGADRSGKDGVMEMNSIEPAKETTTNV
UniProt P07237: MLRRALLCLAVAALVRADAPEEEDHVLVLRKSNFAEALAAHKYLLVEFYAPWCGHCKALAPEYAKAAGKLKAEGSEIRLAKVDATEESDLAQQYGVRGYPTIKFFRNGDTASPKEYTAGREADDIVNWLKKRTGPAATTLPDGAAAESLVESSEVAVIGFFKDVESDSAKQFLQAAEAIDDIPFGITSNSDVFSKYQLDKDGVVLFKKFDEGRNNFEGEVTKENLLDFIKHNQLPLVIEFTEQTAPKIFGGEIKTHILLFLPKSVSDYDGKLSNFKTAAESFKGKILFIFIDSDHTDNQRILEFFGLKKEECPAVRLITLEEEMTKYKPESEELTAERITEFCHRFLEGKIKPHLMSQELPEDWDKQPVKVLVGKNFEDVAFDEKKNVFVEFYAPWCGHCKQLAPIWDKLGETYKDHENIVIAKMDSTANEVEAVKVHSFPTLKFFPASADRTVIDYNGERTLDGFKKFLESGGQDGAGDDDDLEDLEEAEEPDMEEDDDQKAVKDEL
UniProt P06132: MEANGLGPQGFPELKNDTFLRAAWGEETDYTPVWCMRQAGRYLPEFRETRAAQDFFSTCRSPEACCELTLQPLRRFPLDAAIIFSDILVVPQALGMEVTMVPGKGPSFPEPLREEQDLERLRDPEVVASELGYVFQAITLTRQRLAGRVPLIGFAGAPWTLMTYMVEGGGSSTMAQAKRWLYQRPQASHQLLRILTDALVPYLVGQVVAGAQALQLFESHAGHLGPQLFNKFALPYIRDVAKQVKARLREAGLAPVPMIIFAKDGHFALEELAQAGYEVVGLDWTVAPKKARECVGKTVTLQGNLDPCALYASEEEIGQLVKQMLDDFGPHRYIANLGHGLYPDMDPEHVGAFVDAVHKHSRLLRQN
UniProt P00387: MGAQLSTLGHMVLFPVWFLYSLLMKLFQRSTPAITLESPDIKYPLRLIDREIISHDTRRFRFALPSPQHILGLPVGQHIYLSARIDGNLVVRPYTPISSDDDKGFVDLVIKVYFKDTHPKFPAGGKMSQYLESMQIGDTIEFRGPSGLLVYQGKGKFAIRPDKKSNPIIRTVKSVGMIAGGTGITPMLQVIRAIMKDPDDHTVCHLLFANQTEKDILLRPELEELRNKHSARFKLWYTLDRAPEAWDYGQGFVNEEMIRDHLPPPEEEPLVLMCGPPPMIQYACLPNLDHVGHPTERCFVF
UniProt O95881: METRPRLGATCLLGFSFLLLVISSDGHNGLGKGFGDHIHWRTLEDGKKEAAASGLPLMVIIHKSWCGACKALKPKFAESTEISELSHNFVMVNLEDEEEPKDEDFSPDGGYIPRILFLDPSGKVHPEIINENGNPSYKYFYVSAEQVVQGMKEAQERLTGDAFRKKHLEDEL
UniProt P14868: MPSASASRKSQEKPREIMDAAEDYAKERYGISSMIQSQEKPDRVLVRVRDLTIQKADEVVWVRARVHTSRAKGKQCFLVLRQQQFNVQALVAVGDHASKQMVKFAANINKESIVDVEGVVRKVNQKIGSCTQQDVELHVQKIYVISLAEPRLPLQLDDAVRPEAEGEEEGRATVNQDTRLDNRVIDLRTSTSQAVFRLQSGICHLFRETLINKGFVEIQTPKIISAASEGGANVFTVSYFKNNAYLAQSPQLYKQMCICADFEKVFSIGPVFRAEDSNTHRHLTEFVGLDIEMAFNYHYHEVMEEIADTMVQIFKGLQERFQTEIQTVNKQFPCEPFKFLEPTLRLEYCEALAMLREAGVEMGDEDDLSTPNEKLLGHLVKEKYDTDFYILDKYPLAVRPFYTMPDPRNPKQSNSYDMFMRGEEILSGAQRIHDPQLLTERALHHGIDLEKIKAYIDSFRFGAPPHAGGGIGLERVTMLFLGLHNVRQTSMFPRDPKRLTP
UniProt P13797: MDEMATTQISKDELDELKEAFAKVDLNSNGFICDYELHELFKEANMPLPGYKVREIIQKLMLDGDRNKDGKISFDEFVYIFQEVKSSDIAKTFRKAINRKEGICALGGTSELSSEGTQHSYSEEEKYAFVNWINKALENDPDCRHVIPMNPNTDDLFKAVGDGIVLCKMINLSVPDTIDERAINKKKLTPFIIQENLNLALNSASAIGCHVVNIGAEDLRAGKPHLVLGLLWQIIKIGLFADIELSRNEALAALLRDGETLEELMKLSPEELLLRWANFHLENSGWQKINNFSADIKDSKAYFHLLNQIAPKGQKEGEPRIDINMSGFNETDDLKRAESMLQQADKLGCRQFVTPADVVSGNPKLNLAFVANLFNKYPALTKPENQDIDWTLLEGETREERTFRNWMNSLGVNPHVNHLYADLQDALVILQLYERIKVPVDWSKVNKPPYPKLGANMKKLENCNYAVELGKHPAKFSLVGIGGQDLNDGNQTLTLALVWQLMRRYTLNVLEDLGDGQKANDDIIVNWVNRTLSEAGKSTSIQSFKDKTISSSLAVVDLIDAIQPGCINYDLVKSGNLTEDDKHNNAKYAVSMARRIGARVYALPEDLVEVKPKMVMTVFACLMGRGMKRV
UniProt P07199: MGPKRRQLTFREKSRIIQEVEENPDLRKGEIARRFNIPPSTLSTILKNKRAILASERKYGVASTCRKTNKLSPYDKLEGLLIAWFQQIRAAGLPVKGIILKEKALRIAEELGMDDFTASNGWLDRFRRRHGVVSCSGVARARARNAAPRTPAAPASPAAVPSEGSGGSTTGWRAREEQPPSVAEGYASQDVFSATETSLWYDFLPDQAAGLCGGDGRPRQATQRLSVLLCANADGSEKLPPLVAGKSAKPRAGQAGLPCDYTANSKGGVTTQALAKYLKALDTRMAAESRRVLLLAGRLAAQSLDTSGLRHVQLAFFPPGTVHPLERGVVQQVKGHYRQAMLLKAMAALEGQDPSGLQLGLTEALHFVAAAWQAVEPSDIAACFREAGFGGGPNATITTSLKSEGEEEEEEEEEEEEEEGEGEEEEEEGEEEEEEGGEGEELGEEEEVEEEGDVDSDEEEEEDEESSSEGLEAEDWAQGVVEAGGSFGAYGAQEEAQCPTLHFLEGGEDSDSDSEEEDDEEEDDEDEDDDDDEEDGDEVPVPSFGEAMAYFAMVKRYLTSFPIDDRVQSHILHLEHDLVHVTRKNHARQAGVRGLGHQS
UniProt P04035: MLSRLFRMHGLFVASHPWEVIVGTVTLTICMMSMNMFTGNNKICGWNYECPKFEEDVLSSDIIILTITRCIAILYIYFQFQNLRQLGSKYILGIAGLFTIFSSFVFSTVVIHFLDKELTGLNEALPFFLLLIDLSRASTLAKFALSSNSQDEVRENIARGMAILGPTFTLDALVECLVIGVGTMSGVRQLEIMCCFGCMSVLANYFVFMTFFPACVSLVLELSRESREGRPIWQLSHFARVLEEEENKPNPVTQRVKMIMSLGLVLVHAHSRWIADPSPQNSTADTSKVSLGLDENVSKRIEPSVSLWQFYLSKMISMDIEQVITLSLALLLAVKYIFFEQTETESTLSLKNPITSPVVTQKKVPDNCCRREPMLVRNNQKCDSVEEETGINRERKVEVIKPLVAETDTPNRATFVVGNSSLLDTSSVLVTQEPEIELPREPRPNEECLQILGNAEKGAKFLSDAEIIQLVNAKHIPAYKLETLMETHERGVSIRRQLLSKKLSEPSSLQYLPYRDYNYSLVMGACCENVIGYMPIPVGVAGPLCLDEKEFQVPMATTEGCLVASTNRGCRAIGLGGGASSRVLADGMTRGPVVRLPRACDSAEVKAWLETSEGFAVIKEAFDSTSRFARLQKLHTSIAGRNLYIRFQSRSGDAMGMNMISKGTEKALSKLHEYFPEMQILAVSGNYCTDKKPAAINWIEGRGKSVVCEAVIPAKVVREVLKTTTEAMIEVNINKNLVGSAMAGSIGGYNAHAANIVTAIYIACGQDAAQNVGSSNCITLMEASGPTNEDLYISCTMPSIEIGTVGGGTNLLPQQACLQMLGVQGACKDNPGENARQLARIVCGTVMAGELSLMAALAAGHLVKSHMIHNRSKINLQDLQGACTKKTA
UniProt P11172: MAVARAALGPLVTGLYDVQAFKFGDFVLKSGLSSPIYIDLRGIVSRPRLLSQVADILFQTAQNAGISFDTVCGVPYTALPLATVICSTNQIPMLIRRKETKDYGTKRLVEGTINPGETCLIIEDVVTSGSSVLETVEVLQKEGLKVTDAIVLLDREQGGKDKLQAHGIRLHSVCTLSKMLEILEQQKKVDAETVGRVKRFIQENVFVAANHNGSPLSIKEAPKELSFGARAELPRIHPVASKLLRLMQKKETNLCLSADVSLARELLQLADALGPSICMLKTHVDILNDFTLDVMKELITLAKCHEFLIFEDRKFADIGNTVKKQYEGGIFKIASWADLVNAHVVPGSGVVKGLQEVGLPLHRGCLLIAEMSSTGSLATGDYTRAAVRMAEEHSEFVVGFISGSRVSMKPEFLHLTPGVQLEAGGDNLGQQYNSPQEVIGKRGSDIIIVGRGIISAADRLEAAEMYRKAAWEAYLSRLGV
UniProt P08574: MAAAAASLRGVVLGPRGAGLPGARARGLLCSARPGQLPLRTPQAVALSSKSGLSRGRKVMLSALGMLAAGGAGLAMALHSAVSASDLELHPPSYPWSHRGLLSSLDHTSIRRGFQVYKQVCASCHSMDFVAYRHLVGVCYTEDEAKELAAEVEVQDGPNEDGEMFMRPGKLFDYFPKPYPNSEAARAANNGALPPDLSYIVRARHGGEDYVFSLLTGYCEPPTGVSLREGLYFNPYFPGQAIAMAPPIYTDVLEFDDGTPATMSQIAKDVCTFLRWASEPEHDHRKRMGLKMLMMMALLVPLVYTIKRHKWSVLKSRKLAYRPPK
UniProt P04843: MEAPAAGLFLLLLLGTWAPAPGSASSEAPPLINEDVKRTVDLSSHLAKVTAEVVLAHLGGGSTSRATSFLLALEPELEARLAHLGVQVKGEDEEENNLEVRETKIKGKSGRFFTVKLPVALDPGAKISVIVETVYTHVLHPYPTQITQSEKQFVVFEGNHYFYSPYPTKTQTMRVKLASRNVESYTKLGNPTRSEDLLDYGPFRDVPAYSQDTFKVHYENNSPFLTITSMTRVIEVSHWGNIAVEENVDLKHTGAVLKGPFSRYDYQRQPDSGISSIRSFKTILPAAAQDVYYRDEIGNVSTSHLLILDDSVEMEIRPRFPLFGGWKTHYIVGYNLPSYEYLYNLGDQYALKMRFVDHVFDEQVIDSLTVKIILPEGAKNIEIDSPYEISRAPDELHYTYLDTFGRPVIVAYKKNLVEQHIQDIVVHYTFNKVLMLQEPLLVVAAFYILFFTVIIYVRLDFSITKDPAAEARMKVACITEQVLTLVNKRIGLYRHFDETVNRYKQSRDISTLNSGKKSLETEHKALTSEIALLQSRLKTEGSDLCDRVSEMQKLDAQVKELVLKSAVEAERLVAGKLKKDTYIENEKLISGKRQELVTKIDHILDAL

The targets below were run with Nc1ncnc2c1ncn2[C@@H]1O[C@H](COP(=O)(O)OP(=O)(O)OP(=O)(O)O)[C@@H](O)[C@H]1O [adenosine triphosphate] (assay: NP40-soluble protein abundance relative to vehicle (solubility fold change) (ratio); higher = more soluble protein in presence of ATP). Details: concentration: 0.5mM.
Method in brief: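 In three independent experiments, Jurkat crude lysate made by Dounce homogenisation was treated for 10 min at room temperature and then 3 min at 37 °C with eight concentrations ranging from 0.1 to 10 mM. It was then solubilised with 0.8% NP40 plus benzonase for 60 min at 4 °C and ultracentrifuged. The supernatant was TMT-labelled for LC-MS/MS, and each value is the fold change against the detergent-processed vehicle for the same replicate, using vsn-normalised intensities.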

Which NP40-soluble protein abundance does the source give for ALAS1 (UniProt P13196) here?
Its NP40-soluble protein abundance is 1.01 ± 0.035.

With SLC2A3 (UniProt P11169) as the target, how does the NP40-soluble protein abundance read?
The NP40-soluble protein abundance was 1.01 ± 0.029.

For P4HB (UniProt P07237), which NP40-soluble protein abundance is on record?
The NP40-soluble protein abundance was 0.971 ± 0.054.

Which NP40-soluble protein abundance does the source give for UROD (UniProt P06132) here?
The NP40-soluble protein abundance was 1.01 ± 0.052.

How did the NP40-soluble protein abundance turn out when UniProt P00387 and related entries was run?
Its NP40-soluble protein abundance is 0.997 ± 0.032.

With TXNDC12 (UniProt O95881) as the target, how does the NP40-soluble protein abundance read?
The NP40-soluble protein abundance was 0.986 ± 0.053.

With DARS (UniProt P14868) as the target, how does the NP40-soluble protein abundance read?
The NP40-soluble protein abundance was 1.02 ± 0.033.

How did the NP40-soluble protein abundance turn out when DDAH2 (UniProt O95865) was run?
Its NP40-soluble protein abundance is 0.982 ± 0.034.

PLS3 (UniProt P13797) was tested. Which NP40-soluble protein abundance did it give?
Its NP40-soluble protein abundance is 0.942 ± 0.0073.

For UniProt P06126, which NP40-soluble protein abundance is on record?
Its NP40-soluble protein abundance is 0.907 ± 0.1.

With CENPB (UniProt P07199) as the target, how does the NP40-soluble protein abundance read?
The NP40-soluble protein abundance was 1.028 ± 0.0085.

For UniProt P10586 and related entries, which NP40-soluble protein abundance is on record?
The NP40-soluble protein abundance was 0.9787 ± 0.0037.

With UniProt P04035 and related entries as the target, how does the NP40-soluble protein abundance read?
Its NP40-soluble protein abundance is 1.03 ± 0.048.

Which NP40-soluble protein abundance does the source give for UMPS (UniProt P11172) here?
The NP40-soluble protein abundance was 1.04 ± 0.065.

How did the NP40-soluble protein abundance turn out when CYC1 (UniProt P08574) was run?
Its NP40-soluble protein abundance is 1 ± 0.018.

With RPN1 (UniProt P04843) as the target, how does the NP40-soluble protein abundance read?
Its NP40-soluble protein abundance is 1.04 ± 0.065.

With “UniProt P15923-2|X6REB3 and related entries” as the target, how does the NP40-soluble protein abundance read?
The NP40-soluble protein abundance was 0.931 ± 0.069.

COX6A1 (UniProt P12074) was tested. Which NP40-soluble protein abundance did it give?
Its NP40-soluble protein abundance is 0.88 ± 0.21.
